# Library screen at single concentrations

By UniProt entry, the sequences of proteins in these tests, tags left out. Residues count along the entry.
UniProt P9WPC5, whole entry: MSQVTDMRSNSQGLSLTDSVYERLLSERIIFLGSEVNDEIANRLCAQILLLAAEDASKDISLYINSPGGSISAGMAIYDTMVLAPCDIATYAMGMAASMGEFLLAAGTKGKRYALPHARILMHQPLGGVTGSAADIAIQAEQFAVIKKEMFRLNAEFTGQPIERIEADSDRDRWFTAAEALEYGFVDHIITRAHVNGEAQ
UniProt P9WPC3, whole entry partner: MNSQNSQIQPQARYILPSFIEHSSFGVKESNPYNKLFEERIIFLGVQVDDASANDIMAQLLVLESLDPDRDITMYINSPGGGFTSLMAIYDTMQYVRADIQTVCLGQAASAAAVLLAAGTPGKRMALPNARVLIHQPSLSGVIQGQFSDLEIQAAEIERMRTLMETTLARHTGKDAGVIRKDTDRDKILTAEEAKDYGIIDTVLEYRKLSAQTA
UniProt Q4DA54, 1-478: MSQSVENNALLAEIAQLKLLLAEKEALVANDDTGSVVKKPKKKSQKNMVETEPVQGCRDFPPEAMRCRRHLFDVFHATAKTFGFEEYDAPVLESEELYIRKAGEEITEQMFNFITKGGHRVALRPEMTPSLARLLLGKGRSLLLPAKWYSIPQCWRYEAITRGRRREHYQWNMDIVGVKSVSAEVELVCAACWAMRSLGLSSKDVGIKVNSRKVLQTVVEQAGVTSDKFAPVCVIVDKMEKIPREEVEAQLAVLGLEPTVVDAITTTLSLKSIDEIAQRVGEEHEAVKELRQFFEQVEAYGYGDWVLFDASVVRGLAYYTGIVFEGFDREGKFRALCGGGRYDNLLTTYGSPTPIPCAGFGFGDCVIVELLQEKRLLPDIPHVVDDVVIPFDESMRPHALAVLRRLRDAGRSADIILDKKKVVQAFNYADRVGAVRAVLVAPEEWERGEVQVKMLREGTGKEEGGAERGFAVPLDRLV
UniProt I6X8D2, whole entry: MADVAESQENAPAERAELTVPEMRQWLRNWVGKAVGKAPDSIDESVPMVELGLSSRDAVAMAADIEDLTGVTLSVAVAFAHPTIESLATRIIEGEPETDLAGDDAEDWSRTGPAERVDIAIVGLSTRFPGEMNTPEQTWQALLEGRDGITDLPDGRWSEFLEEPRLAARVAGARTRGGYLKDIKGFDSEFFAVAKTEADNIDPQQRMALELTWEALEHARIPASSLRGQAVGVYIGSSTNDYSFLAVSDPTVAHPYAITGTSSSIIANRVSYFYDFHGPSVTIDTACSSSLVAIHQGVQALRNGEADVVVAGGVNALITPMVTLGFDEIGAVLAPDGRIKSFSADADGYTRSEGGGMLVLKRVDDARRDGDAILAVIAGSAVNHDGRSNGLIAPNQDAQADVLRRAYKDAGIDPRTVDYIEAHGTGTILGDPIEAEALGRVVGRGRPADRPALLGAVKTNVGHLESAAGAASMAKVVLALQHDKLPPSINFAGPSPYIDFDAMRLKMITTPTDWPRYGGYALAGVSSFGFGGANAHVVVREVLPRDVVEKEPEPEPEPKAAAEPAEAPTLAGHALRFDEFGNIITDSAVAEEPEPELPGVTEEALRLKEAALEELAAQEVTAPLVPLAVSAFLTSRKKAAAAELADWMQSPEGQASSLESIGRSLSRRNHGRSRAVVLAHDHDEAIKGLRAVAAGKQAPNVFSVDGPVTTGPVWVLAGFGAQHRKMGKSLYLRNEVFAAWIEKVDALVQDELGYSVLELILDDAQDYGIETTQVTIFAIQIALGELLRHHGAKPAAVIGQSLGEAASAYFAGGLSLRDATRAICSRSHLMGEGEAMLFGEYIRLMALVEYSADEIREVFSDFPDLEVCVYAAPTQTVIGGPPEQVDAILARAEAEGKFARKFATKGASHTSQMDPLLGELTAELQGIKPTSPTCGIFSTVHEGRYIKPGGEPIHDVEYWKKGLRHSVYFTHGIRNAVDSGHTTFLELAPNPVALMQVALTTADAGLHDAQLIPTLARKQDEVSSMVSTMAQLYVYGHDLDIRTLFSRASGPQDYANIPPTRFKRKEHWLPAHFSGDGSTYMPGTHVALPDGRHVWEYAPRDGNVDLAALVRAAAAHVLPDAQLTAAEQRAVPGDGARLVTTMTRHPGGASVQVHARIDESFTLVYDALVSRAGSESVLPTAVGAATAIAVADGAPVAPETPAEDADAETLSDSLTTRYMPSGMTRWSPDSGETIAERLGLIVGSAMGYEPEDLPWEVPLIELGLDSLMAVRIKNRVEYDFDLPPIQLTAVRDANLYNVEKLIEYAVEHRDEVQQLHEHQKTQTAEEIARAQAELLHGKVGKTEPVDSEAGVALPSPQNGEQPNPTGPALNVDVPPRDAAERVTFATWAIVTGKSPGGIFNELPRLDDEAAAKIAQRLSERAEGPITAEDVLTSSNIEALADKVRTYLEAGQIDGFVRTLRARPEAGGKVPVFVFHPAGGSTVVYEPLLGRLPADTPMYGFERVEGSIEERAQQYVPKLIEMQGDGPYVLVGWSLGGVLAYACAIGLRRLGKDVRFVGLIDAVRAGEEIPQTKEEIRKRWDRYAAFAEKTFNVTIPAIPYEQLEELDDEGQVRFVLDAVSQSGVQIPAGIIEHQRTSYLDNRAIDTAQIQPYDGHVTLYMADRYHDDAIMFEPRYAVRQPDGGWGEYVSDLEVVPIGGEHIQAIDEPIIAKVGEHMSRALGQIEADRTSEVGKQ
UniProt Q8IDJ8, 1-583: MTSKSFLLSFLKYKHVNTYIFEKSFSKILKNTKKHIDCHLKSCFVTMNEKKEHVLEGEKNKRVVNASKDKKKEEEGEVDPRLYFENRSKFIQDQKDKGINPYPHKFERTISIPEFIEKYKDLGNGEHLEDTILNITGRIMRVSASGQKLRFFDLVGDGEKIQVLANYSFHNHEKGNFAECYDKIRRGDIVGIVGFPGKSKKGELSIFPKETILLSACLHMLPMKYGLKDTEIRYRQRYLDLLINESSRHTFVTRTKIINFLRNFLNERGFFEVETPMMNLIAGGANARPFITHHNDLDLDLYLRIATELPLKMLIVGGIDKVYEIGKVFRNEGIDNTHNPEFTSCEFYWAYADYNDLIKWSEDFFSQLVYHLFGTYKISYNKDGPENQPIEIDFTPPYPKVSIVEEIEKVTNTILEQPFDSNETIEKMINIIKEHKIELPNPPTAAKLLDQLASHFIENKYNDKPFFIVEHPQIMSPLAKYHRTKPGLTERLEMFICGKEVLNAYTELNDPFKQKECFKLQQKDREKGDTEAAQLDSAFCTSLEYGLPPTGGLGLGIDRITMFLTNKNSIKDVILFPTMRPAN

Source: ChEMBL document CHEMBL3988442, “University of Dundee, Small-Polar-MMV Screening Library” (2021).

A: 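ClpP1P2, Mycobacterium tuberculosis (UniProt P9WPC5 and UniProt P9WPC3). Protease assay of ClpP1P2, read by the AMC dye that it sets free. Tested at 50 µM. Higher reads as stronger inhibition, judged from the few compounds that gave an IC50. Most other retested compounds had strongly negative values. Of about 69,000 compounds tested this way, about 10 (0.015%) reached 50% or more in at least one test.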
B: 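Assay of Toxoplasma gondii numbers, read through their beta-galactosidase reporter with a colour substrate. Concentration: 10 µM. Higher reads as fewer parasites (inferred from which compounds were picked for retests). Of about 67,000 compounds tested this way, about 260 (0.38%) reached 50% or more in at least one test.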
C: 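Histidine-tRNA ligase, Trypanosoma cruzi CL Brener (UniProt Q4DA54). Enzyme assay of histidyl-tRNA synthetase; the read-out is not stated. Tested at 30 µM. Direction is inferred from retests: higher values go with stronger inhibition. About 69,000 compounds were tested under these conditions; 0.045% (about 31) showed 50% or more at least once.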
D: 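Enzyme assay of the thioesterase domain of polyketide synthase 13; the read-out is not stated. Target: Polyketide synthase Pks13, Mycobacterium tuberculosis (UniProt I6X8D2). Concentration: 30 µM. Higher reads as stronger inhibition (inferred from which compounds were picked for retests). Of about 67,000 compounds tested this way, about 300 (0.46%) reached 50% or more in at least one test.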
E: 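Lysine-tRNA ligase, Plasmodium falciparum 3D7 (UniProt Q8IDJ8). Enzyme assay of the cytosolic lysyl-tRNA synthetase in 384-well plates, read by luminescence. Compounds at 30 µM. Higher reads as stronger inhibition, judged from the few compounds that gave an IC50. Of about 69,000 compounds tested this way, about 49 (0.071%) reached 50% or more in at least one test.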

Results are given as percent effect.
How 0% and 100% were set is not recorded. Most values in the screen are low, and negative values occur.
Compounds were drawn at random from those tested, without regard to their results.
A dash means the value is not listed here; it may have been measured.

structure,A,B,C,D,E
CCC(=O)Nc1ccc(F)cc1OC,-0.2378,-1.948,9.524,-0.2642,-2.652
[H][C@]12CN(Cc3scnc3C)C[C@@]1([H])OCCN(S(C)(=O)=O)C2,-,3.756,-,-,-
NC(=O)CN1CCCN(C(=O)c2ccn(-c3ccc(F)cc3)n2)CC1,-2.907,7.059,-1.058,-5.471,-3.69
O=C(NCc1ccccn1)[C@]12COC[C@H]1CN(Cc1ccccc1F)C2,3.664,-,2.804,-24.01,3.774
COCCN1CCc2ncnc(OC(C)C)c2CC1.O=C(O)C(F)(F)F,-,-18.13,-,-,-
CCOCC1CN(CCN2CCCCC2)Cc2cnn(C)c21.O=C(O)C(F)(F)F.O=C(O)C(F)(F)F.O=C(O)C(F)(F)F (centres unmarked),-,12.72,-,-,-
O=C(O)C(F)(F)F.O=C1CC[C@]2(CC[C@@H](NC3CCOCC3)CC2)N1Cc1ccccc1,-,-12.04,-,-,-
CCc1nc(-c2ccc(NC(=O)N3CCC4(CC3)OCCO4)cc2)no1,-6.773,17.86,8.537,-7.498,2.786
CN(Cc1ccco1)C(=O)CN1CCCC(Cn2cncn2)C1 (centres unmarked),-3.197,-0.6905,0,-3.51,-3.662
O=C1CCCN1Cc1nnc2n1CCN(Cc1ccoc1)CC2,5.882,-,3.008,-0.6692,-7.587
CN(C)[C@H]1CCCCN(Cc2ccccc2Cn2cccn2)C1,17.62,-7.446,2.174,44.65,-1.599
Cn1cc(N2CC3(COCCN(Cc4nccs4)C3)OCC2=O)cn1.O=C(O)C(F)(F)F (centres unmarked),-,3.864,-,-,-
O=C(c1cnc(O)cc1O)N1CCCC(CCc2ccccc2F)C1 (centres unmarked),-19.92,-16.31,7.463,-18.68,4.797
CN1CCC(c2cccc(-c3cccc(C(=O)O)c3)n2)CC1,1.403,-7.429,10.15,-5.956,1.083
O=C(Nc1ccc(Cn2cccn2)cc1)N1CCC2(CC1)OCCO2,-3.795,-1.747,2.381,-20.25,4.443
C[C@@H](NC(=O)c1cnccn1)c1c(-c2ccc(Cl)cc2)noc1C(=O)O.Cl,-,15.06,-,-,-
CSc1ccccc1C(=O)N(C)C1CCCN(CCc2ccccc2)C1 (centres unmarked),2.075,3.768,-1.163,-45.55,1.657
Cc1cc(-c2nn3c(C)nnc3s2)n[nH]1,-10.27,-17.56,1.932,-11.13,-6.524
CC(=O)Nc1cccc(C(=O)N(C)C(C)Cc2cc(C)ccn2)c1 (centres unmarked),-17.99,-3.606,7.229,-17.78,-0.5333
CN1C(=O)CCCC12CCCN(Cc1cccs1)C2.O=C(O)C(F)(F)F (centres unmarked),-,-4.845,-,-,-
CC(C)n1[nH]c(=O)c2c1NC(=O)CC2c1cccc(O)c1 (centres unmarked),-11.43,7.322,2.424,-5.215,3.03
CC(C)c1nc(CN2CCN(C(=O)OC(C)(C)C)C(C)C2)no1 (centres unmarked),-8.206,2.524,3.867,-13.68,1.073
CCc1cc(C(=O)N2CCCn3nc(CCC(=O)O)cc3C2)cs1,-6.533,-15.33,7.538,2.882,-0.9928
CCc1cnc(CN(C)C2CCN(CCCS(=O)(=O)NC)C2)o1 (centres unmarked),14.22,9.981,2.632,-8,6.731
Cc1ccc(C(=O)NC2CCCN(CC(N)=O)C2)c(=O)[nH]1 (centres unmarked),-5.436,-7.64,10.05,4.816,2.507
CCCn1nc(C)c(-c2cncn2CCN(C)C2CCCC2)c1C,-3.824,-,1.916,-9.011,-0.1752
CN(CC(N)=O)CC(=O)N(C1=CCCCC1)C1CC1,-6.126,-11.28,3.158,2.501,0.1127
CCCN(Cc1cccc(OCCO)c1)Cc1ccccc1OC,-3.078,-2.036,7.143,-4.815,0.8553
Cc1nc(-c2ccccc2)sc1CNC1CCc2ncnn2C1 (centres unmarked),-18.03,-1.597,6.322,-34.5,1.556
Cc1cc(NCC(=O)N(C)C(C)c2cccs2)c(C(N)=O)cc1F (centres unmarked),-46.88,10.57,3.867,-0.9222,0.7989
CNc1nc(C)cc(N2CCC(C(=O)O)(n3ccc(C(C)C)n3)CC2)n1,-14.26,-8.063,7.071,3.365,0.7941
Cc1ccc(N2CC[C@@H]3CN(Cc4cc[nH]n4)C[C@@H]3C2)nn1,-8.17,-,5.747,3.96,4.951
O=C(O)C(F)(F)F.[H][C@@]12CCN(CC3CCOCC3)C[C@@]1([H])O[C@H](c1nc(C)no1)C2,-,-2.761,-,-,-
Cc1ccnc(OC[C@@]23CCO[C@@H]2CCN(c2ncccn2)C3)n1,4.52,-,9.195,19.48,-0.7757
CC(C)n1ccnc1CN1CCOC(CC2CCCCC2)C1 (centres unmarked),-6.7,-14.53,4.348,32.69,1.451
c1coc(CN2CCCn3c(nnc3Cn3cccc3)C2)c1,-0.2009,-,6.667,7.966,3.913
Cn1cccc1CN1CCC2(CC1)CN(c1ccccc1)C(=O)CO2.O=C(O)C(F)(F)F,-,-10.64,-,-,-
Cl.O=C(NC[C@@]1(COc2cnccn2)C[C@@H](O)[C@@H](O)C1)C1CCOCC1,-,-1.958,-,-,-
Cc1noc(C)c1CN1CCO[C@H]2[C@H](Oc3ncccc3F)CC[C@@H]21,-1.664,-,8.537,8.872,-0.5933
O=C(c1cc(-n2cccn2)ccc1Cl)N1CCCC(N2CCCC2)C1 (centres unmarked),-15.62,-3.936,5.747,6.904,1.297
CCCS(=O)(=O)N1C[C@H]2C[C@H](C(=O)N3CCCC3)[C@@H](C1)O2,12.76,-,7.767,-14.79,6.99
CCCc1nc(C(=O)NC(COC)c2ccnn2C)cs1 (centres unmarked),-2.1,-11.06,8.458,-6.11,3.45
CCc1onc(C)c1C(=O)N1CCN(c2ncc3c(n2)CCOC3)CC1.Cl,-,11.04,-,-,-
CC(NC(=O)CCCc1ccc(Cl)cc1)c1n[nH]c(=O)[nH]1 (centres unmarked),6.883,6.012,-4.469,-15.81,6.874
O=C(O)CCc1cccc(C2CCCN2Cc2ccc(F)c(F)c2)n1 (centres unmarked),-5.264,0.5766,2.703,-32.36,4.524
CC(C)NC(=O)[C@H](C)NC(=O)N1CCN(c2ccc(Cl)cc2)CC1,-18.03,8.575,0,-6.935,4.301
CC(C)N1CC2(CCC1=O)CCN(C(=O)c1cc(F)ccc1Cl)CC2,6.646,0.9859,4.444,-23.08,-1.512

The last 3 entries again:

structure,A,B,C,D,E
O=C(O)CCc1cccc(C2CCCN2Cc2ccc(F)c(F)c2)n1 (centres unmarked),-5.264,0.5766,2.703,-32.36,4.524
CC(C)NC(=O)[C@H](C)NC(=O)N1CCN(c2ccc(Cl)cc2)CC1,-18.03,8.575,0,-6.935,4.301
CC(C)N1CC2(CCC1=O)CCN(C(=O)c1cc(F)ccc1Cl)CC2,6.646,0.9859,4.444,-23.08,-1.512